In publication PMC10024440:
These are yes or no findings as the source states them, for the method shown. In cells and extracts the contact can be indirect. Some entries that bind do so weakly or less than the wild type.

Amino acid sequences for entries named in this document (tags omitted).
UniProt P35222: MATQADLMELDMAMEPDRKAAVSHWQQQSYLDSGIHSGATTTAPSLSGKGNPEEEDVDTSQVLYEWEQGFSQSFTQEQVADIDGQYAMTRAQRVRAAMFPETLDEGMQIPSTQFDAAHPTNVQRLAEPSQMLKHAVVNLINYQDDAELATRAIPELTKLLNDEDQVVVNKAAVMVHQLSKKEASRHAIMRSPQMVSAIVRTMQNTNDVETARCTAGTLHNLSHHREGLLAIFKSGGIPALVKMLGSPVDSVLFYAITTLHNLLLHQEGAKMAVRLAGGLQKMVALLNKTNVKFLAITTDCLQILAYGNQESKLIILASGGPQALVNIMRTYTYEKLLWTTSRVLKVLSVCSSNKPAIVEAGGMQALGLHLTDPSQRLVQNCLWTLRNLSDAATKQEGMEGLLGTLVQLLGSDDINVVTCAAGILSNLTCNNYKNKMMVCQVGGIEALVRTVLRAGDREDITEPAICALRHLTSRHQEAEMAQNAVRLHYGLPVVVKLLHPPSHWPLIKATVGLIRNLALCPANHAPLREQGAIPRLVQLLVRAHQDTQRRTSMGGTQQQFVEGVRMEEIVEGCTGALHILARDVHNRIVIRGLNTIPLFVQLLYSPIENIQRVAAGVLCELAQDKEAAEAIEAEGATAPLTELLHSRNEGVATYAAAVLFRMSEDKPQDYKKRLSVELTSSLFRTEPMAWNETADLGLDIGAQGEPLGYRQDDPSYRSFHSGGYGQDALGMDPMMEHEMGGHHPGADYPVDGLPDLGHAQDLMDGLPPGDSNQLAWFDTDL

B1: cell division cycle and apoptosis regulator 1 (CCAR1) (protein, UniProt Q8IX12 1-1150)
chain: MAQFGGQKNPPWATQFTATAVSQPAALGVQQPSLLGASPTIYTQQTALAAAGLTTQTPANYQLTQTAALQQQAAAAAAALQQQYSQPQQALYSVQQQLQQPQQTLLTQPAVALPTSLSLSTPQPTAQITVSYPTPRSSQQQTQPQKQRVFTGVVTKLHDTFGFVDEDVFFQLSAVKGKTPQVGDRVLVEATYNPNMPFKWNAQRIQTLPNQNQSQTQPLLKTPPAVLQPIAPQTTFGVQTQPQPQSLLQAQISAASITPLLQTQPQPLLQQPQQKAGLLQPPVRIVSQPQPARRLDPPSRFSGRNDRGDQVPNRKDDRSRERERERRRSRERSPQRKRSRERSPRRERERSPRRVRRVVPRYTVQFSKFSLDCPSCDMMELRRRYQNLYIPSDFFDAQFTWVDAFPLSRPFQLGNYCNFYVMHREVESLEKNMAILDPPDADHLYSAKVMLMASPSMEDLYHKSCALAEDPQELRDGFQHPARLVKFLVGMKGKDEAMAIGGHWSPSLDGPDPEKDPSVLIKTAIRCCKALTGIDLSVCTQWYRFAEIRYHRPEETHKGRTVPAHVETVVLFFPDVWHCLPTRSEWETLSRGYKQQLVEKLQGERKEADGEQDEEEKDDGEAKEISTPTHWSKLDPKTMKVNDLRKELESRALSSKGLKSQLIARLTKQLKVEEQKEEQKELEKSEKEEDEDDDRKSEDDKEEEERKRQEEIERQRRERRYILPDEPAIIVHPNWAAKSGKFDCSIMSLSVLLDYRLEDNKEHSFEVSLFAELFNEMLQRDFGVRIYKSLLSLPEKEDKKEKDKKSKKDERKDKKEERDDETDEPKPKRRKSGDDKDKKEDRDERKKEDKRKDDSKDDDETEEDNNQDEYDPMEAEEAEDEEDDRDEEEMTKRDDKRDINRYCKERPSKDKEKEKTQMITINRDLLMAFVYFDQSHCGYLLEKDLEEILYTLGLHLSRAQVKKLLNKVVLRESCFYRKLTDTSKDEENHEESESLQEDMLGNRLLLPTPTVKQESKDVEENVGLIVYNGAMVDVGSLLQKLEKSEKVRAEVEQKLQLLEEKTDEDEKTILNLENSNKSLSGELREVKKDLSQLQENLKISENMNLQFENQMNKTIRNLSTVMDEIHTVLKKDNVKNEDKDQKSKENGASV

How the values were obtained:
[1] = biological target: T1, cell division cycle and apoptosis regulator 1 (CCAR1) (human (endogenous in HCCLM3 and SK-Hep-1)) (UniProt Q8IX12); experiment: co-IP; extracts of HCCLM3 or SK-Hep-1 cells; endogenous proteins; precipitated with anti-β-catenin or anti-CCAR1 antibodies, detected by blot
T1 sequence: B1 chain

[2] = biological target: β-catenin (human (endogenous in HCCLM3 and SK-Hep-1)) (UniProt P35222); experiment: as above

Row | Molecule | binding [1] | binding [2]
1 | β-catenin (from UniProt P35222 1-781) | binds | 
2 | B1 |  | binds
